# Measurements published in PubChem BioAssay AID2685 (National Center for Advancing Translational Sciences (NCATS), 2010).
# The list shows a part of the results. Further columns of the screen follow, without active or inactive calls. The list favours compounds with an active or inconclusive main result. The note in brackets gives the kind of curve behind each potency; many fits are weak.
# Assay: qHTS Assay for Lipid Storage Modulators in Drosophila S3 Cells;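 as to cell number change: cells counted by Cell Tracker Red CMTPX staining in the red channel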
# Details: BODIPY lipid droplet fluorescence, 18-24 h; for cell number change: measured here: cell count max response, cells fed with added oleic acid
# How it was run: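 Drosophila S3 cells loaded with oleic acid (400 uM, as added) and compounds at several concentrations; lipid droplets imaged by 488-nm laser-scanning cytometry, 500–530 nm intensity and object ratio to cell channel. Percent activity normalized to 20 uM Triacsin C.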
# [1] = measured here: lipid fluorescence (Fed channel) AC50, cells fed with added oleic acid
# [2] = measured here: cell number channel AC50, cells fed with added oleic acid
SMILES,cell number change,AC50 [1],AC50 [2]
Cc1ccc(C)c(-c2cc(C(=O)N/N=C/c3cccnc3)c3ccccc3n2)c1,4.69%,"18.4 µM [falling, partial curve]",–
CC(C)(C)c1nnc(NC(=O)c2cc(-c3ccccc3)nc3ccccc23)s1,30.4%,–,"13 µM [rising, partial curve, poor fit]"
Cc1cc(=O)[nH]c(N/N=C/c2cn(CCC#N)nc2-c2ccccc2)n1,9.13%,"3.66 µM [rising, partial curve]","0.651 µM [rising, full curve, poor fit]"
Cc1nc(SCC(=O)Nc2c(C)n(C)n(-c3ccccc3)c2=O)nc(C)c1C,-8.17%,"18.4 µM [rising, single point]",–
CC(CN1CCCCC1)OC(=O)Cc1ccc(Cl)cc1 (stereo not drawn),-53.6%,"5.17 µM [falling, single point]","1.46 µM [falling, full curve]"
Clc1ccc(-c2cc(CSc3cccc(Cl)c3)on2)cc1,17.9%,"25.9 µM [rising, single point]",–
Cc1ccc(C(=O)O)cc1NC(=O)Nc1cccc2ccccc12,8.05%,"0.00517 µM [rising, full curve, poor fit]",–
CCc1nc2ccccc2c(C(=O)OCC(=O)NCc2ccc3c(c2)OCO3)c1C,1.93%,–,–
O=C(c1ccco1)N1CCN(S(=O)(=O)N2CCOCC2)CC1,12.8%,"1.03 µM [falling, full curve]",–
CC1C(=O)NN=C1C(=O)N/N=C\c1ccc(O)cc1O (stereo not drawn),-67.6%,"0.103 µM [falling, full curve]","10.3 µM [falling, partial curve, poor fit]"
CSc1ccccc1OCc1cc(C(=O)NCCCc2ccccc2)no1,–,"20.6 µM [falling, partial curve, poor fit]",–
Cc1ccccc1OCCNc1cc(N2CCNCC2)ccc1[N+](=O)[O-],19.5%,"0.461 µM [rising, partial curve, poor fit]",–
Cc1ccc(N2C(=O)c3cccc4c(C(=O)O)ccc(c34)C2=O)cc1,0.481%,–,–
CSCCC(N=C(NS(=O)(=O)c1ccc(C)cc1)c1ccccc1)C(=O)O (stereo not drawn),-45.8%,"0.0146 µM [falling, full curve]","0.116 µM [falling, full curve]"
COc1ccc(N(CC(=O)NCCc2ccccc2)C(=O)c2csnn2)cc1OC,0.427%,"0.651 µM [rising, single point]",–
O=C(O)C1CCCCC1C(=O)NCCc1ccncc1 (stereo not drawn),-3.9%,"0.651 µM [falling, full curve, poor fit]",–
Cc1ccc(S(=O)(=O)N2CCC(C(=O)Nc3ncccc3O)CC2)cc1,1.16%,"29.1 µM [falling, single point]",–
CC1(NC(=O)Nc2cc([N+](=O)[O-])ccc2O)CCS(=O)(=O)C1 (stereo not drawn),–,"29.1 µM [rising, single point]",–
Cc1ccc(NP(=O)(Nc2ccc(C)cc2)Nc2ccc(C)cc2)cc1,51.5%,–,"18.4 µM [rising, single point]"
C/C(=N\OCC(=O)Nc1ccc(OC(F)(F)F)cc1)c1ccc2c(c1)OCCO2,42.3%,"29.1 µM [rising, single point]","11.6 µM [rising, partial curve, poor fit]"

SMILES,cell number change,AC50 [1],AC50 [2]
CC(C)Cc1nc(N2CCN(C(=O)Cc3ccccc3)CC2)c(C#N)c2c1COC(C)(C)C2,-10.4%,–,–
CCc1ccccc1NC(=O)COc1cccc2ccc(C)nc12,-50.6%,"2.06 µM [rising, partial curve]","11.6 µM [falling, partial curve, poor fit]"
CC(=O)c1c(C)[nH]c(C(=O)Nc2ccc(C)c(C)c2)c1C,–,"5.8 µM [rising, partial curve]",–
Cc1ccc(CNC(=O)C(Cc2ccccc2)NS(=O)(=O)c2ccc3c(c2)CCC(=O)N3)cc1 (stereo not drawn),-11%,"1.3 µM [rising, full curve, poor fit]",–
Cc1ccccc1S(=O)(=O)Cc1ccc(C(=O)O)o1,-79.2%,–,"5.17 µM [falling, full curve]"
COc1ccc(-n2c(SCC#N)nc3c(sc(=S)n3-c3ccccc3)c2=O)c(OC)c1,43.7%,"8.2 µM [rising, partial curve]","14.6 µM [rising, partial curve]"
CN(Cc1ccc(C(C)(C)C)cc1)C(=O)c1ccc2c(c1)OCO2,–,–,"3.26 µM [rising, partial curve]"
N/C(Cc1ccc(Cl)cc1Cl)=N\OC(=O)c1cccs1,–,–,"0.00651 µM [falling, full curve, poor fit]"
COc1ccc(-c2[nH]ncc2CN2CCC(c3ccncc3)CC2)cc1F,-3.87%,"0.58 µM [falling, single point]",–
COc1ccc(NC(=O)CSc2nnc(-c3cccnc3)s2)cc1,–,"8.2 µM [rising, partial curve]",–
C=CCN(Cc1ccc(Cl)s1)C(=O)c1cc(S(=O)(=O)N2CCOCC2)ccc1F,-20.8%,–,–
CCC(C)N(CCNC(=O)CC1Oc2ccc(C)cc2NC1=O)C1CCCCC1 (stereo not drawn),-1.9%,"0.058 µM [falling, full curve, poor fit]",–
CCCCn1c(/C=C/c2ccco2)nc2ccccc21,-16.3%,"20.6 µM [falling, single point]",–
COc1ccc(OC)c(CCNC(=O)CC2Oc3ccc(C)cc3NC2=O)c1 (stereo not drawn),-0.0506%,–,–
Cc1cc(NC(=O)CCN2C(=O)C3C4C=CC(C4)C3C2=O)ccc1Br (stereo not drawn),76.4%,–,"20.6 µM [rising, partial curve, poor fit]"
Cc1onc(-c2ccccc2)c1C(=O)OCC(=O)NC(=O)c1ccccc1,-4.82%,–,–
Cc1ccc(NC(=O)C(C)Oc2ccccc2)cc1S(=O)(=O)N1CCCCCC1 (stereo not drawn),-10.4%,"0.0651 µM [rising, full curve, poor fit]",–
Cc1ccnc(NS(=O)(=O)c2ccc(NC(=O)c3ccc(Br)o3)cc2)n1,-42.6%,–,"3.66 µM [falling, single point]"
CCCc1[nH]nc2c1C(C1CCCCC1)C(C#N)=C(N)O2 (stereo not drawn),–,–,"3.26 µM [rising, single point]"
Nn1c(SCC(=O)NCCC2=CCCCC2)nnc1C(F)(F)F,-17.9%,"29.1 µM [falling, single point]",–

# A different layout for part of the listing above.
SMILES | cell number change | AC50 [1] | AC50 [2]
C/C(=N\OCC(=O)Nc1ccc(OC(F)(F)F)cc1)c1ccc2c(c1)OCCO2 | 42.3% | 29.1 µM [rising, single point] | 11.6 µM [rising, partial curve, poor fit]
CC(C)Cc1nc(N2CCN(C(=O)Cc3ccccc3)CC2)c(C#N)c2c1COC(C)(C)C2 | -10.4% | – | –
CCc1ccccc1NC(=O)COc1cccc2ccc(C)nc12 | -50.6% | 2.06 µM [rising, partial curve] | 11.6 µM [falling, partial curve, poor fit]
CC(=O)c1c(C)[nH]c(C(=O)Nc2ccc(C)c(C)c2)c1C | – | 5.8 µM [rising, partial curve] | –
Cc1ccc(CNC(=O)C(Cc2ccccc2)NS(=O)(=O)c2ccc3c(c2)CCC(=O)N3)cc1 (stereo not drawn) | -11% | 1.3 µM [rising, full curve, poor fit] | –

# Carrying on.

SMILES,cell number change,AC50 [1],AC50 [2]
COc1cc(OC)c(-c2c3cc(O)c(=O)cc-3oc3cc(O)c(O)cc23)cc1OC,-98.9%,"3.26 µM [falling, full curve]","5.17 µM [falling, full curve]"
C/C(N)=C(/C#N)C(=O)COC(=O)c1ccc(O)cc1,15.7%,–,–
CCCN1C(=O)/C(=C/C=C2\N(CC)c3ccccc3C2(C)C)SC1=S,-67.3%,"1.3 µM [falling, full curve]","1.3 µM [falling, full curve]"
CN(C)CCCOc1cccc(Cl)c1,-15.6%,"0.13 µM [falling, full curve, poor fit]",–
O=C(CSc1nnnn1C1CCCC1)Nc1cccc(NC(=O)c2ccco2)c1,30.9%,–,"1.46 µM [rising, partial curve, poor fit]"
COc1ccc(O)c(-c2cc(-c3cccc(Br)c3)n[nH]2)c1,-30%,"29.1 µM [falling, single point]","29.1 µM [falling, single point]"
CCOc1ccc(N(CC(=O)NC2CCCCC2)C(=O)Cn2nnc(-c3ccc(C)o3)n2)cc1,17.3%,–,–
CC(C)CN(C(=O)COC(=O)c1cnccn1)c1c(N)n(Cc2ccccc2)c(=O)[nH]c1=O,-29%,–,"0.82 µM [falling, full curve, poor fit]"
Cc1c(OC(C)C(=O)NC2CC(C)(C)NC(C)(C)C2)ccc2c3c(c(=O)oc12)CCC3 (stereo not drawn),22%,"6.51 µM [rising, single point]",–
Cn1c2cc(B(O)O)sc2c2cnn(Cc3ccc(F)cc3F)c(=O)c21,44.3%,"18.4 µM [rising, partial curve]","2.91 µM [rising, single point]"
CCOc1ccccc1C(=O)N[C@H](C(=O)Nc1ccc(OC)c(S(=O)(=O)N2CCOCC2)c1)C(C)C,42.4%,–,"18.4 µM [rising, partial curve, poor fit]"
COc1ccc(-n2nnnc2CNC(=O)c2ccc3ccccc3c2)cc1,71.7%,–,"14.6 µM [rising, partial curve]"
CCOC(=O)NC1(C(F)(F)F)NC(=O)N(Cc2ccco2)C1=O (stereo not drawn),-15.4%,–,–
COc1cc(OC)cc(C(=O)n2cnnc2N)c1,-68.8%,–,"29.1 µM [falling, single point]"
COc1ccccc1CN(Cc1nc2ccccc2c(=O)[nH]1)C(=O)Nc1ccccc1C,22.5%,"0.00461 µM [rising, full curve, poor fit]",–
COc1cccc(N/C=C(\C#N)c2ccc(OCCCF)cc2)c1,-3.1%,–,–
CC(C)c1ccc(/C=N/Nc2ccc(C(=O)O)cc2)cc1,-50.3%,–,"18.4 µM [falling, partial curve, poor fit]"
N#CCSc1nnc(C2CCCCC2)n1Cc1ccccc1,1.29%,–,–
O=C(NCc1ccccc1)c1ccc2ccccc2n1,29%,"29.1 µM [rising, single point]",–
Nc1nonc1-c1nc2ccccc2n1CC(=O)N1CCN(c2ccc(F)cc2)CC1,–,"0.82 µM [rising, full curve]","0.517 µM [rising, full curve, poor fit]"
